The assay addresses T1, Coiled-coil alpha-helical rod protein 1 (CCHCR1), bait of the BioID experiment (human) (UniProt Q8TD31).
T1 sequence: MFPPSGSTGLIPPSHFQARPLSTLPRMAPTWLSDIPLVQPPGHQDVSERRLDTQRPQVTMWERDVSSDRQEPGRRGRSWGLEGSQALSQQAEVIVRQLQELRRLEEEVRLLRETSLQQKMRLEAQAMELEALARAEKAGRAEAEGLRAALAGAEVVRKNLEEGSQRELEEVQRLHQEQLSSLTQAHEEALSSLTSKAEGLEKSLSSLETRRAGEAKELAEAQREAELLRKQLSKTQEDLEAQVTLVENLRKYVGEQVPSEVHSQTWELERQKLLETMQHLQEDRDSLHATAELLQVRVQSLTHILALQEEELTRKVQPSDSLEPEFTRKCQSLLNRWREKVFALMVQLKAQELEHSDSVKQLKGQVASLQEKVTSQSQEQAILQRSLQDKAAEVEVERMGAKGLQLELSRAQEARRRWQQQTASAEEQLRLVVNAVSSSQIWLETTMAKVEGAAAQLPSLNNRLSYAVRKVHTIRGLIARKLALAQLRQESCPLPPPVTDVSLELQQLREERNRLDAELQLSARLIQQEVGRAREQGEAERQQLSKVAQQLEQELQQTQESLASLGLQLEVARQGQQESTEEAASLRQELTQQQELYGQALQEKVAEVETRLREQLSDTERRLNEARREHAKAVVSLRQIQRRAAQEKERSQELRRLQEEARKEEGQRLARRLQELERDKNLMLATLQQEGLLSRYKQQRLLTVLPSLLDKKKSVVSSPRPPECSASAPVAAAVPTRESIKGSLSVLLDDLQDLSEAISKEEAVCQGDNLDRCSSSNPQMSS
The assay is described as follows: proximity labelling; proximity-dependent biotinylation (BioID) of CCHCR1 coupled with LC-MS/MS; cells and construct not told.

Results are given in words; binding and its absence hold for the method and conditions named. Binding seen in cells or lysates may run through a third protein. These calls come from enrichment with a bait or labelling near it, and not all partners need be listed.

B1: Enhancer of mRNA-decapping protein 4, found by BioID (protein, UniProt Q6P2E9 1-1401)
chain: MASCASIDIEDATQHLRDILKLDRPAGGPSAESPRPSSAYNGDLNGLLVPDPLCSGDSTSANKTGLRTMPPINLQEKQVICLSGDDSSTCIGILAKEVEIVASSDSSISSKARGSNKVKIQPVAKYDWEQKYYYGNLIAVSNSFLAYAIRAANNGSAMVRVISVSTSERTLLKGFTGSVADLAFAHLNSPQLACLDEAGNLFVWRLALVNGKIQEEILVHIRQPEGTPLNHFRRIIWCPFIPEESEDCCEESSPTVALLHEDRAEVWDLDMLRSSHSTWPVDVSQIKQGFIVVKGHSTCLSEGALSPDGTVLATASHDGYVKFWQIYIEGQDEPRCLHEWKPHDGRPLSCLLFCDNHKKQDPDVPFWRFLITGADQNRELKMWCTVSWTCLQTIRFSPDIFSSVSVPPSLKVCLDLSAEYLILSDVQRKVLYVMELLQNQEEGHACFSSISEFLLTHPVLSFGIQVVSRCRLRHTEVLPAEEENDSLGADGTHGAGAMESAAGVLIKLFCVHTKALQDVQIRFQPQLNPDVVAPLPTHTAHEDFTFGESRPELGSEGLGSAAHGSQPDLRRIVELPAPADFLSLSSETKPKLMTPDAFMTPSASLQQITASPSSSSSGSSSSSSSSSSSLTAVSAMSSTSAVDPSLTRPPEELTLSPKLQLDGSLTMSSSGSLQASPRGLLPGLLPAPADKLTPKGPGQVPTATSALSLELQEVEPLGLPQASPSRTRSPDVISSASTALSQDIPEIASEALSRGFGSSAPEGLEPDSMASAASALHLLSPRPRPGPELGPQLGLDGGPGDGDRHNTPSLLEAALTQEASTPDSQVWPTAPDITRETCSTLAESPRNGLQEKHKSLAFHRPPYHLLQQRDSQDASAEQSDHDDEVASLASASGGFGTKVPAPRLPAKDWKTKGSPRTSPKLKRKSKKDDGDAAMGSRLTEHQVAEPPEDWPALIWQQQRELAELRHSQEELLQRLCTQLEGLQSTVTGHVERALETRHEQEQRRLERALAEGQQRGGQLQEQLTQQLSQALSSAVAGRLERSIRDEIKKTVPPCVSRSLEPMAGQLSNSVATKLTAVEGSMKENISKLLKSKNLTDAIARAAADTLQGPMQAAYREAFQSVVLPAFEKSCQAMFQQINDSFRLGTQEYLQQLESHMKSRKAREQEAREPVLAQLRGLVSTLQSATEQMAATVAGSVRAEVQHQLHVAVGSLQESILAQVQRIVKGEVSVALKEQQAAVTSSIMQAMRSAAGTPVPSAHLDCQAQQAHILQLLQQGHLNQAFQQALTAADLNLVLYVCETVDPAQVFGQPPCPLSQPVLLSLIQQLASDLGTRTDLKLSYLEEAVMHLDHSDPITRDHMGSVMAQVRQKLFQFLQAEPHNSLGKAARRLSLMLHGLVTPSLP
Regarding B1, the binding entry is listed as “binds”.

The record behind these values is publication PMC9590400.
